Experimental data from patent publication US9359196B2, “Antiproliferative compositions comprising curcumin analogs and methods of producing and using same” (The Board of Regents of the University of Oklahoma, priority 2009, dated 2016).
Some of these results come from one statement about several compounds together. At least one compound was matched to its structure with a doubt left.

Test system: lung adenocarcinoma cell line H441
Experiment: Cell proliferation (hexosaminidase assay) in lung adenocarcinoma H441 cells, Example 1
Assay type: cell-based, human
Conditions: 24 h of treatment, read-out: IC50 (grouping relative to compound 1)
Protocol: Cell Proliferation Studies: In order to assess the anti-proliferative activity of the synthesized compounds, an in vitro cell culture system of lung adenocarcinoma cell line H441 was used. The cell detachment and anti-proliferative activity was measured as a decrease in hexosaminidase enzyme activity associated with remainder of the adhered cells. [Landegren, 1984] […] The concentration versus cell proliferation plots were analyzed by an exponential fit (Table 1). The results were compared with the anti-proliferative activity of compound 1.
Cell Culture and drug treatment: Human lung adenocarcinoma cell line NCI-H441 (ATCC Number: HTB-174) was obtained from the American Type Culture Collection (Manassas, Va.). H441 cells were maintained at 37° C. with 5% CO2 in McCoy's 5A Medium (Invitrogen, Carlsbad, Calif.) supplemented with 5% heat-inactivated fetal bovine serum (FBS). All media contained gentamicin at 50 μg/ml (GIBCO Laboratories, Grand Island, N.Y.). […]
Cell Proliferation: The total number of cells after the treatment period was estimated by the hexosaminidase assay. […] The absorbance was measured at 405 nm. […] The data were analyzed as percent of control, where the control wells were treated with equivalent amounts of DMSO alone, and the analyzed data was presented as average±standard error of mean. […]

SMILES	IC50 [µM]
O=C(O)CCC(=O)N1CC(=Cc2ccccc2F)C(=O)C(=Cc2ccccc2F)C1 [Compound 12]	> 50
O=C(CCC(=O)N1CC(=Cc2ccccc2F)C(=O)C(=Cc2ccccc2F)C1)N[C@H]1C(O)O[C@H](CO)[C@@H](O)[C@@H]1O (some centres unmarked) [Compound 22, 4-Oxo-4-[3,5-bis(2-fluorobenzylidene-4-piperidonylcarbonyl)-2-glucosepropanamide]]	> 50
